Results are given in words; binding and its absence hold for the method and conditions named. In cells and extracts the contact can be indirect. Some entries that bind do so weakly or less than the wild type. For some of these results: Where a sequence is shown, tags or fusion partners need not be part of it.

Protein sequences, listed by entry. Tags and fused reporters are not part of them.
UniProt P08670: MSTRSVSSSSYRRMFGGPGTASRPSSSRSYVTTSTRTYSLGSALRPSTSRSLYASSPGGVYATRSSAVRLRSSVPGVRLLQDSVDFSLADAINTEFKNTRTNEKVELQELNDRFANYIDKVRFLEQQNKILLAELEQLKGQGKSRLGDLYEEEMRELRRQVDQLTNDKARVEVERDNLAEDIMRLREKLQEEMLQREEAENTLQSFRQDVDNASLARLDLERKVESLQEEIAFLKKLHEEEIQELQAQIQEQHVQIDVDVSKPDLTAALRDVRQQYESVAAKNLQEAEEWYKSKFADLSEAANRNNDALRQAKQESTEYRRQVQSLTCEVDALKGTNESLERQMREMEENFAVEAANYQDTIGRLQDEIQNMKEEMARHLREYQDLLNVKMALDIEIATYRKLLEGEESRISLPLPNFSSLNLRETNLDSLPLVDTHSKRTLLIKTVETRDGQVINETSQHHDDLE

The target of assay [1] is T1, RASSF2 (expression construct precipitated with anti-Flag) (UniProt P50749).
T1 sequence: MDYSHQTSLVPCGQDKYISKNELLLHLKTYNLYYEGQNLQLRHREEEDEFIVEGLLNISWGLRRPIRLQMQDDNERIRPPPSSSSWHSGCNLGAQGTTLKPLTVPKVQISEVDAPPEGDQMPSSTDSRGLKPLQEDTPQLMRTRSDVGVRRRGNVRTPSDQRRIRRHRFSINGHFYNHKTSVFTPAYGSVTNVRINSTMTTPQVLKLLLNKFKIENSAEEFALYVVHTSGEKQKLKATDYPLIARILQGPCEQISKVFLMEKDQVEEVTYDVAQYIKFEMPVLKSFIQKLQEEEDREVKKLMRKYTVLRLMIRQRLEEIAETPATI
Kind of assay: co-IP; HEK-293T co-transfected with RASSF2, C1QBP and with or without activated K-Ras for 24 hours; lysates immunoprecipitated with anti-Flag, blotted with anti-Flag and anti-GFP.

Assay [2] has as its target endogenous C1QBP (H441) (human (endogenous in H441)) (UniProt Q07021). In words: co-IP; endogenous proteins; H441 lung cancer cell lysates immunoprecipitated with anti-C1QBP, blotted with anti-RASSF2.
The target of assay [3] is GFP-tagged Vimentin (UniProt P08670). In words: co-IP; as a5, with activated K-Ras co-expressed.
The target is the same in assay [4]. In words: co-IP; HEK-293T co-transfected with HA-RASSF2 and GFP-Vimentin, without activated K-Ras; lysates immunoprecipitated with anti-GFP, blotted with anti-HA.

B1: GFP-C1QBP (natural protein, UniProt Q07021 74-282, looked up)
chain: LHTDGDKAFVDFLSDEIKEERKIQKHKTLPKMSGGWELELNGTEAKLVRKVAGEKITVTFNINNSIPPTFDGEEEPSQGQKVEEQEPELTSTPNFVVEVIKNDDGKKALVLDCHYPEDEVGQEDEAESDIFSIREVSFQSTGESEWKDTNYTLNTDSLDWALYDHLMDFLADRGVDNTFADELVELSTALEHQEYITFLEDLKSFVKSQ
notes: C1QBP; cDNA from GeneCopoeia, PCR amplified and cloned into pEGFP-C1; source: HEK-293T, transfected, in lysate
Turning to B1, the binding result in assay [1] is on record as “binds”.

B2: endogenous RASSF2 (protein, UniProt P50749 1-326)
chain: MDYSHQTSLVPCGQDKYISKNELLLHLKTYNLYYEGQNLQLRHREEEDEFIVEGLLNISWGLRRPIRLQMQDDNERIRPPPSSSSWHSGCNLGAQGTTLKPLTVPKVQISEVDAPPEGDQMPSSTDSRGLKPLQEDTPQLMRTRSDVGVRRRGNVRTPSDQRRIRRHRFSINGHFYNHKTSVFTPAYGSVTNVRINSTMTTPQVLKLLLNKFKIENSAEEFALYVVHTSGEKQKLKATDYPLIARILQGPCEQISKVFLMEKDQVEEVTYDVAQYIKFEMPVLKSFIQKLQEEEDREVKKLMRKYTVLRLMIRQRLEEIAETPATI
As to B2, in assay [2], the binding result is listed as “binds”.

B3: HA-tagged RASSF2 (protein, UniProt P50749 1-326)
chain: MDYSHQTSLVPCGQDKYISKNELLLHLKTYNLYYEGQNLQLRHREEEDEFIVEGLLNISWGLRRPIRLQMQDDNERIRPPPSSSSWHSGCNLGAQGTTLKPLTVPKVQISEVDAPPEGDQMPSSTDSRGLKPLQEDTPQLMRTRSDVGVRRRGNVRTPSDQRRIRRHRFSINGHFYNHKTSVFTPAYGSVTNVRINSTMTTPQVLKLLLNKFKIENSAEEFALYVVHTSGEKQKLKATDYPLIARILQGPCEQISKVFLMEKDQVEEVTYDVAQYIKFEMPVLKSFIQKLQEEEDREVKKLMRKYTVLRLMIRQRLEEIAETPATI
Take B3: the results for the binding result in assay [3] and in assay [4] were “no binding (condition: with activated K-Ras co-expressed)” and “binds”, respectively.
